The list shows a part of the results.
Tests used:
Assay in all cases: log2 fold change, soluble protein after heating vs DMSO (PISA); higher = thermal stabilisation; K562 lysate, 10 uM; active = over 0.2 and 3.5 SD of the protein, either way, in both replicates (recomputed)
nilotinib = compound: Cc1cn(-c2cc(NC(=O)c3ccc(C)c(Nc4nccc(-c5cccnc5)n4)c3)cc(C(F)(F)F)c2)cn1 [nilotinib]
Summary of the method: (§1)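 To prepare the extract, K562 pellets were dounce-homogenised in PBS pH 7.4 with 1 mM MgCl2, giving crude material at 1 mg/mL protein. This was treated with 10 μM compound for 30 min, then heated in aliquots for 3 min over 48°C-58°C before pooling and addition of NP-40 to 0.5% at 4°C. Centrifugation at 21,000xg for 90 min left soluble protein in the supernatant, which TMTpro 16plex LC-MS/MS quantified with equalised channel sums. Results are log-two fold changes in thermal stability compared with solvent controls, from duplicates.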

Chains of the proteins cited; added tags and fusions are not shown. Lines headed by an entry give the natural chain unless they say otherwise; changes in a name come on top.
UniProt Q4VC05, whole entry, looked up: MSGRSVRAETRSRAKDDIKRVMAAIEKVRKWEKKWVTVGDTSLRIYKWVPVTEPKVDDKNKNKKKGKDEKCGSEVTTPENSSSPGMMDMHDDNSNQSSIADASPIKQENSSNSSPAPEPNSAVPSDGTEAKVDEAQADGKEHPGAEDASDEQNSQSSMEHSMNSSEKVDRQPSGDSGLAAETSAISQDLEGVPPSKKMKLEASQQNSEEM
UniProt Q9UHR4: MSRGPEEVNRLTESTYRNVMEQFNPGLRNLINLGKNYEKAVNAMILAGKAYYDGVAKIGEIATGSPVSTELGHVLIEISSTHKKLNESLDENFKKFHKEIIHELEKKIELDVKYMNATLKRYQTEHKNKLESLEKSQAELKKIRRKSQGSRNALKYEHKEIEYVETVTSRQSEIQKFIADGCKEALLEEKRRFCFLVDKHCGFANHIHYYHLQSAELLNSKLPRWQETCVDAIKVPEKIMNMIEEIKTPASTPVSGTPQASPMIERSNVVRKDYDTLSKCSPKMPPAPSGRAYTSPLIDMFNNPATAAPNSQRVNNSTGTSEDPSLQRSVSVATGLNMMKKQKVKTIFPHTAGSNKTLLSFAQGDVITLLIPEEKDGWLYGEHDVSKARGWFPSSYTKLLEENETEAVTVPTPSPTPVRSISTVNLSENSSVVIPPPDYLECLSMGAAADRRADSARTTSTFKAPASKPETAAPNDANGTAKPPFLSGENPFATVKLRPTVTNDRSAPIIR
UniProt P78537: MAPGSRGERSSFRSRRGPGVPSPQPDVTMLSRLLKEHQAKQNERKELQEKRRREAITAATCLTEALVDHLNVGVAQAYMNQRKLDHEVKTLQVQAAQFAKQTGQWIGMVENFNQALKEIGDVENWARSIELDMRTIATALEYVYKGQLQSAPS
UniProt Q6QNY1: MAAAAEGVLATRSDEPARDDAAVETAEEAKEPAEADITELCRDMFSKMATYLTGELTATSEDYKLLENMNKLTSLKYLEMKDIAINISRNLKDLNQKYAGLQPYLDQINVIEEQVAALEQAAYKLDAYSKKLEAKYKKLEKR
UniProt P25440, whole entry, looked up: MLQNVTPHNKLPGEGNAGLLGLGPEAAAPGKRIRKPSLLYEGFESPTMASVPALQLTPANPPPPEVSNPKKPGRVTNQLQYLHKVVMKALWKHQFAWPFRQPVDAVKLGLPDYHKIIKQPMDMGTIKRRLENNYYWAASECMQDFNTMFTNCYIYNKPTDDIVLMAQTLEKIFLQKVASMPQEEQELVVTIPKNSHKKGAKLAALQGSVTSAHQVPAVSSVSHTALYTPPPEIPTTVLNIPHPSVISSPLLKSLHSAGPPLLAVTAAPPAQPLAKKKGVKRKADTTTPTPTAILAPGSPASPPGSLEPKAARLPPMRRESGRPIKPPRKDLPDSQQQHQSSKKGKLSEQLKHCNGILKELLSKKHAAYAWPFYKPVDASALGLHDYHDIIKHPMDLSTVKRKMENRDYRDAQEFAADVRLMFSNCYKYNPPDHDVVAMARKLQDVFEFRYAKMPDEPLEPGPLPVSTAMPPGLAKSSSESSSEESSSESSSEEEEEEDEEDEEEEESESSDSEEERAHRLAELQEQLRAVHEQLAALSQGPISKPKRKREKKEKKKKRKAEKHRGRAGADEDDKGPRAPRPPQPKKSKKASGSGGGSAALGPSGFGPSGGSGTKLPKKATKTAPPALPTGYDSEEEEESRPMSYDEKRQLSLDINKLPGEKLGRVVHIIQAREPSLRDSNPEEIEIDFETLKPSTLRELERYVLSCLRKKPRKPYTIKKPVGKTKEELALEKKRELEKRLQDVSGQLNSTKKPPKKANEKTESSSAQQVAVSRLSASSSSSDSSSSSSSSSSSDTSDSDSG
UniProt Q6PGQ7, whole entry, looked up: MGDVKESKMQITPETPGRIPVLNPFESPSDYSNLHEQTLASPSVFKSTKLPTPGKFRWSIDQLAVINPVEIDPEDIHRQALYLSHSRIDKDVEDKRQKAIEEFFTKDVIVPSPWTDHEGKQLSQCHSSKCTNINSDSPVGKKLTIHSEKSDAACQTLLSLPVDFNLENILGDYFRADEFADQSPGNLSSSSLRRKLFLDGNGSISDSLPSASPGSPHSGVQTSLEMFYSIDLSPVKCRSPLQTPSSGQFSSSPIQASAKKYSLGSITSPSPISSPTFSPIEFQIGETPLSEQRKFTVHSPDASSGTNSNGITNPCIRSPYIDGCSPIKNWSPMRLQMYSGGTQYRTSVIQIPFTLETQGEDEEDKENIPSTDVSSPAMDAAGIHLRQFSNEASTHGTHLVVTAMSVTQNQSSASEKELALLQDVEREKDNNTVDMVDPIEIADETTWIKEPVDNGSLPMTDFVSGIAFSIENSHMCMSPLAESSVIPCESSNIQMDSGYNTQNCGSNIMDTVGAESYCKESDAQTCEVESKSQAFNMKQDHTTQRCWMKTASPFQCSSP
UniProt Q96RK4: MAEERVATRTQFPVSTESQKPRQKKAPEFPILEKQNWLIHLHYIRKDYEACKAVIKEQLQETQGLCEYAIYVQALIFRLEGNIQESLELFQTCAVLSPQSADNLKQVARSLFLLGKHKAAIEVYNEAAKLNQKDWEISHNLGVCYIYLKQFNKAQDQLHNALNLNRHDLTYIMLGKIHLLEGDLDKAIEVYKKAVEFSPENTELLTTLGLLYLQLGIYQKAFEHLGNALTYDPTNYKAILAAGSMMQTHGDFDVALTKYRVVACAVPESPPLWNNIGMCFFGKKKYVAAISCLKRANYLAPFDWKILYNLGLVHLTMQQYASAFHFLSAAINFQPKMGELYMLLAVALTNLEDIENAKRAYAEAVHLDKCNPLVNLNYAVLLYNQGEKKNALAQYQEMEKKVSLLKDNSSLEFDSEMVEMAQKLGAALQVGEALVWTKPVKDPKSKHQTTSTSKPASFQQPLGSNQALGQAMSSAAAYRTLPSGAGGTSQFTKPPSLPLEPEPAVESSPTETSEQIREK
UniProt Q8WY22: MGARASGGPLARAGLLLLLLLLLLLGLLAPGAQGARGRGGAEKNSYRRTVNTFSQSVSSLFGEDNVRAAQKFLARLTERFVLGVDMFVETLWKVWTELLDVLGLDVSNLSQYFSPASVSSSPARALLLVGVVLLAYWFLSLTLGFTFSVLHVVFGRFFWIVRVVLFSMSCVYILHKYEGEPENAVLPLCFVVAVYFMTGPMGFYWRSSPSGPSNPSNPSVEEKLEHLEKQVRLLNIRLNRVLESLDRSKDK
UniProt Q9NWD9: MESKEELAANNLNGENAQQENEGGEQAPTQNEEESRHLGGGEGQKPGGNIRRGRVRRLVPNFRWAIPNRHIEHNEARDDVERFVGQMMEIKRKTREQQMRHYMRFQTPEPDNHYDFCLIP
UniProt Q8WY36: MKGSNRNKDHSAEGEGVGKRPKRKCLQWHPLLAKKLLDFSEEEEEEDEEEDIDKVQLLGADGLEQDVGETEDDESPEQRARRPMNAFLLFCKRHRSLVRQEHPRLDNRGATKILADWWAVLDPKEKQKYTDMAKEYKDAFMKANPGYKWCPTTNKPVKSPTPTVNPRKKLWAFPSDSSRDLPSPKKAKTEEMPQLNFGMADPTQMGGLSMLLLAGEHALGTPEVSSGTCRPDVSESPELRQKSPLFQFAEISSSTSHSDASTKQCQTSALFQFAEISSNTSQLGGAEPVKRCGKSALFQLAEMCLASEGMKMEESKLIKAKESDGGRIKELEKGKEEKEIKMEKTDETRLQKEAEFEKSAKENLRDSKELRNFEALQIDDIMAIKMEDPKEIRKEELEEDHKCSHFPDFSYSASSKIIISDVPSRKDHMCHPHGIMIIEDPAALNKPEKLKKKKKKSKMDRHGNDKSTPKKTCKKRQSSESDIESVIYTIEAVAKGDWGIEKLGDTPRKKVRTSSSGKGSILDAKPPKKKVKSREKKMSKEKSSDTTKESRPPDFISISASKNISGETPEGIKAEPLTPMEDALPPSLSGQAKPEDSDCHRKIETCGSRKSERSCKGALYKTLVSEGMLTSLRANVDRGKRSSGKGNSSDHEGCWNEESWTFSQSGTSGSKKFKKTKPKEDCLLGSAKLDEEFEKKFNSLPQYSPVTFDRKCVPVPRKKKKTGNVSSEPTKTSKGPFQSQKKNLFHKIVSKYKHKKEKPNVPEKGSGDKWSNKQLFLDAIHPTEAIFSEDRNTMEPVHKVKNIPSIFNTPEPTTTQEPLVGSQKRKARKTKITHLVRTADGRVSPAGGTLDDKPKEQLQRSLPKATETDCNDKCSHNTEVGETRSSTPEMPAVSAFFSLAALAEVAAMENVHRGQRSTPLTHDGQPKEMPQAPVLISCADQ
UniProt Q1RMZ1: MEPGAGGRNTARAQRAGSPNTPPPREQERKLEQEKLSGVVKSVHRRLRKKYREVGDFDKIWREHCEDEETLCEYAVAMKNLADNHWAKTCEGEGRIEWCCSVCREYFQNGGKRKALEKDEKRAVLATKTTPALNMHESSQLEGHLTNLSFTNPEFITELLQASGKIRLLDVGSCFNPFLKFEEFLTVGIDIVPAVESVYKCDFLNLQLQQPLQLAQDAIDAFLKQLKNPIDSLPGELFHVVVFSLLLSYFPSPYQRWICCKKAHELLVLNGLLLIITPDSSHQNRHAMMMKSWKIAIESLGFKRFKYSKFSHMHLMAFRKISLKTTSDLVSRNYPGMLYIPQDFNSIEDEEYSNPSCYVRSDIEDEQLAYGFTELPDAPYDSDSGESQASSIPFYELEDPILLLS
UniProt Q9H0C5: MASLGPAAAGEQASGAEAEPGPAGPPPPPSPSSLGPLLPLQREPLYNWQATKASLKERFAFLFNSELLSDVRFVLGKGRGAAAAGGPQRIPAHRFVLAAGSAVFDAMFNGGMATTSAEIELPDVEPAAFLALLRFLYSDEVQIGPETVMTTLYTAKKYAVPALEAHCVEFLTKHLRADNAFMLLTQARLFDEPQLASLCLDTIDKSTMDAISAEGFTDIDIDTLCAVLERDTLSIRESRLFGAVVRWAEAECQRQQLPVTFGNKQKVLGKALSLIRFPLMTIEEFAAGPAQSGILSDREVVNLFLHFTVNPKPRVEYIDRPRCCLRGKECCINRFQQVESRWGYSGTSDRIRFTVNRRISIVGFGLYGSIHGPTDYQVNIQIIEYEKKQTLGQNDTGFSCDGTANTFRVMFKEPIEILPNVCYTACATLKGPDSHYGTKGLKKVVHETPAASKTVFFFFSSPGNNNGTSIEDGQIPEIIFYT
UniProt O43505: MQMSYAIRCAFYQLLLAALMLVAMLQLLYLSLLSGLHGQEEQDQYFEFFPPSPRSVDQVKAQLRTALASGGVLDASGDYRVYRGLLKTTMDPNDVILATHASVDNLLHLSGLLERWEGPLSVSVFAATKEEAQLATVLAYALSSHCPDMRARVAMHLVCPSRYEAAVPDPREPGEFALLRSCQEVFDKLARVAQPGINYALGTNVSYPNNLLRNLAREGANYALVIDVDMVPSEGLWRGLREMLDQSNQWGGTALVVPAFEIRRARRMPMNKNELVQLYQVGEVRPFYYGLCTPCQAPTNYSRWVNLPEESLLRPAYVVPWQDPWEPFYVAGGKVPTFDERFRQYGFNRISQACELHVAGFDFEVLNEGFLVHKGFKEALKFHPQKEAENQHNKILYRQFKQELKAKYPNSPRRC
UniProt Q96G97: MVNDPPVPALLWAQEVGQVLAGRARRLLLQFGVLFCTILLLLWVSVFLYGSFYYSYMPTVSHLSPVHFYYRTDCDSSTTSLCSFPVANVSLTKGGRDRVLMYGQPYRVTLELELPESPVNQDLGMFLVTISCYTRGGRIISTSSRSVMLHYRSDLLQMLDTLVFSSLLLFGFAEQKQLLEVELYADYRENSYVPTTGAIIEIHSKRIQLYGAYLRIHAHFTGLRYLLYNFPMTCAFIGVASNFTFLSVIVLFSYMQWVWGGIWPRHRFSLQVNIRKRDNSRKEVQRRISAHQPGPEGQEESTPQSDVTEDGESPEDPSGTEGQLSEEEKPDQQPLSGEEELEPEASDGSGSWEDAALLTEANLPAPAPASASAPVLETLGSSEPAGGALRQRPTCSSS
UniProt O00499: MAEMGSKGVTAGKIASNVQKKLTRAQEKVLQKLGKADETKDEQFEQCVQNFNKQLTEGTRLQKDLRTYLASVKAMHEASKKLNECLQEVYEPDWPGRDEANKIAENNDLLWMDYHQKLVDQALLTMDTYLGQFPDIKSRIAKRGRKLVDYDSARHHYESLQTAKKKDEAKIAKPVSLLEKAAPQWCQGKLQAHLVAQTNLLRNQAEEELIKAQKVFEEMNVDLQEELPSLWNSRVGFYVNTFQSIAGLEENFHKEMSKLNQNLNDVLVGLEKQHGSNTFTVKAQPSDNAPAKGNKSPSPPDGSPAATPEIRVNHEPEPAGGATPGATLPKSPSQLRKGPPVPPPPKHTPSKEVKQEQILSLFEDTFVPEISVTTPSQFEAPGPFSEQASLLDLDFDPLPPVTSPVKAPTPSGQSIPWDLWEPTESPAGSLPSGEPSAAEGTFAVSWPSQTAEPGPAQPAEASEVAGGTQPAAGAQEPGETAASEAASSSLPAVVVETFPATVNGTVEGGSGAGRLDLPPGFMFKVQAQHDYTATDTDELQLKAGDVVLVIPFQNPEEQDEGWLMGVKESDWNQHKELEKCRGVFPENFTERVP

[1] = compound: Cc1nc(Nc2n[nH]c3c2CN(C(=O)N[C@H](CN(C)C)c2ccccc2)C3(C)C)c2sccc2n1
Summary of the method: as §1

dasatinib = compound: Cc1nc(Nc2ncc(C(=O)Nc3c(C)cccc3Cl)s2)cc(N2CCN(CCO)CC2)n1 [dasatinib]
Summary of the method: as §1

[2] = compound: Cc1ncc(-c2ccnc(Nc3ccc(S(C)(=O)=O)cc3)n2)n1C(C)C
Summary of the method: as §1

[3] = compound: Cn1cc(-c2ccc3c(c2)CCN3C(=O)Cc2cccc(C(F)(F)F)c2)c2c(N)ncnc21
Summary of the method: as §1

quisinostat = compound: Cn1cc(CNCC2CCN(c3ncc(C(=O)NO)cn3)CC2)c2ccccc21 [quisinostat]
Summary of the method: as §1

tipifarnib = compound: Cn1cncc1[C@@](N)(c1ccc(Cl)cc1)c1ccc2c(c1)c(-c1cccc(Cl)c1)cc(=O)n2C [tipifarnib]
Summary of the method: as §1

[4] = compound: NC(=O)Nc1cc(-c2cccc(F)c2)sc1C(=O)N[C@H]1CCCNC1
Summary of the method: as §1

[5] = compound: NC(=O)c1cnc(N[C@@H]2CCCC[C@@H]2N)nc1Nc1cccc(-n2nccn2)c1
Summary of the method: as §1

[6] = compound: NC1(c2ccc(-c3nc4ccn5c(=O)[nH]nc5c4cc3-c3ccccc3)cc2)CCC1
Summary of the method: as §1

| Target | log2 fold change (nilotinib) | log2 fold change [1] | log2 fold change (dasatinib) | log2 fold change [2] | log2 fold change [3] | log2 fold change (quisinostat) | log2 fold change (tipifarnib) | log2 fold change [4] | log2 fold change [5] | log2 fold change [6] |
| --- | --- | --- | --- | --- | --- | --- | --- | --- | --- | --- |
| BCL7A isoform 2 (UniProt Q4VC05) | inactive: -0.032 | inactive: 0.005 | inactive: 0.061 | inactive: -0.05 | inactive: 0.079 | inactive: 0.04 | inactive: 0.007 | inactive: -0.018 | inactive: 0.04 | inactive: 0.037 |
| BAG6 isoform 3 (UniProt P46379) | inactive: 0.031 | inactive: -0.008 | inactive: -0.051 | inactive: 0 | inactive: 0.002 | inactive: 0.009 | inactive: -0.017 | inactive: 0.024 | inactive: -0.016 | inactive: -0.007 |
| BTF3L4 (UniProt Q96K17) | inactive: -0.006 | inactive: -0.009 | inactive: -0.013 | inactive: -0.014 | inactive: -0.053 | inactive: -0.005 | inactive: 0.016 | inactive: 0.055 | inactive: -0.035 | inactive: 0.024 |
| BCL2L12 (UniProt Q9HB09) | inactive: -0.12 | inactive: -0.007 | inactive: -0.129 | inactive: -0.004 | inactive: 0.046 | inactive: 0.022 | inactive: 0.075 | inactive: -0.041 | inactive: 0.121 | inactive: 0.013 |
| BCAR1 isoform 6 (UniProt P56945) | inactive: -0.021 | inactive: -0.015 | inactive: 0.001 | inactive: -0.068 | inactive: 0.018 | inactive: 0.021 | inactive: -0.006 | inactive: 0.016 | inactive: -0.009 | inactive: 0.008 |
| BAIAP2L1 (UniProt Q9UHR4) | inactive: -0.033 | inactive: -0.01 | inactive: 0.037 | inactive: -0.011 | inactive: -0.006 | inactive: 0.015 | inactive: 0 | inactive: -0.006 | inactive: 0.009 | inactive: 0.032 |
| BRD4 (UniProt O60885) | inactive: 0.034 | inactive: -0.009 | inactive: -0.018 | inactive: 0.019 | inactive: -0.001 | inactive: -0.091 | inactive: -0.019 | inactive: 0.013 | inactive: -0.051 | inactive: -0.008 |
| BLOC1S1 (UniProt P78537) | inactive: 0.078 | inactive: -0.028 | inactive: 0.015 | inactive: -0.11 | inactive: -0.061 | inactive: 0.06 | inactive: 0.031 | inactive: -0.047 | inactive: -0.031 | inactive: -0.007 |
| BLOC1S2 (UniProt Q6QNY1) | inactive: -0.051 | inactive: 0.099 | inactive: -0.082 | inactive: -0.082 | inactive: 0.043 | inactive: -0.123 | inactive: -0.103 | inactive: -0.096 | inactive: -0.005 | inactive: 0.067 |
| BCAS2 (UniProt O75934) | inactive: 0.073 | inactive: -0.06 | inactive: -0.002 | inactive: 0.026 | inactive: 0.037 | inactive: -0.021 | inactive: -0.03 | inactive: 0.009 | inactive: -0.011 | inactive: -0.008 |
| BRD2 isoform 2 (UniProt P25440) | inactive: 0.012 | inactive: 0.15 | inactive: 0.011 | inactive: -0.024 | inactive: -0.048 | inactive: -0.028 | inactive: -0.035 | inactive: 0.028 | inactive: -0.161 | inactive: -0.064 |
| BORA (UniProt Q6PGQ7) | inactive: -0.005 | inactive: 0.043 | inactive: 0.034 | inactive: -0.071 | inactive: -0.077 | inactive: 0.085 | inactive: -0.007 | inactive: -0.024 | – | inactive: 0.057 |
| BRCA2 (UniProt P51587) | inactive: -0.278 | inactive: -0.229 | inactive: -0.056 | inactive: 0.253 | inactive: -0.038 | inactive: -0.004 | inactive: -0.12 | inactive: 0.058 | – | inactive: 0.144 |
| BBS4 isoform 2 (UniProt Q96RK4) | inactive: -0.086 | inactive: -0.026 | inactive: 0.026 | inactive: -0.177 | inactive: -0.112 | – | inactive: -0.22 | – | – | – |
| BAZ1A (UniProt Q9NRL2) | inactive: 0.075 | inactive: 0.07 | inactive: 0.019 | inactive: 0.046 | inactive: -0.043 | inactive: -0.057 | inactive: 0 | inactive: 0.025 | – | inactive: -0.09 |
| BRI3BP (UniProt Q8WY22) | inactive: -0.02 | inactive: -0.037 | inactive: -0.045 | inactive: 0.115 | inactive: -0.05 | – | inactive: 0.189 | – | inactive: -0.057 | inactive: 0.088 |
| B4GALT1 (UniProt P15291) | inactive: 0.021 | inactive: -0.028 | – | inactive: -0.023 | – | inactive: 0.003 | inactive: 0.009 | inactive: 0.026 | inactive: 0.028 | inactive: -0.022 |

Rewritten tab-delimited: part of the list above
Target	log2 fold change (nilotinib)	log2 fold change [1]	log2 fold change (dasatinib)	log2 fold change [2]	log2 fold change [3]	log2 fold change (quisinostat)	log2 fold change (tipifarnib)	log2 fold change [4]	log2 fold change [5]	log2 fold change [6]
BAIAP2L1 (UniProt Q9UHR4)	inactive: -0.033	inactive: -0.01	inactive: 0.037	inactive: -0.011	inactive: -0.006	inactive: 0.015	inactive: 0	inactive: -0.006	inactive: 0.009	inactive: 0.032
BRD4 (UniProt O60885)	inactive: 0.034	inactive: -0.009	inactive: -0.018	inactive: 0.019	inactive: -0.001	inactive: -0.091	inactive: -0.019	inactive: 0.013	inactive: -0.051	inactive: -0.008
BLOC1S1 (UniProt P78537)	inactive: 0.078	inactive: -0.028	inactive: 0.015	inactive: -0.11	inactive: -0.061	inactive: 0.06	inactive: 0.031	inactive: -0.047	inactive: -0.031	inactive: -0.007
BLOC1S2 (UniProt Q6QNY1)	inactive: -0.051	inactive: 0.099	inactive: -0.082	inactive: -0.082	inactive: 0.043	inactive: -0.123	inactive: -0.103	inactive: -0.096	inactive: -0.005	inactive: 0.067
BCAS2 (UniProt O75934)	inactive: 0.073	inactive: -0.06	inactive: -0.002	inactive: 0.026	inactive: 0.037	inactive: -0.021	inactive: -0.03	inactive: 0.009	inactive: -0.011	inactive: -0.008
BRD2 isoform 2 (UniProt P25440)	inactive: 0.012	inactive: 0.15	inactive: 0.011	inactive: -0.024	inactive: -0.048	inactive: -0.028	inactive: -0.035	inactive: 0.028	inactive: -0.161	inactive: -0.064
BORA (UniProt Q6PGQ7)	inactive: -0.005	inactive: 0.043	inactive: 0.034	inactive: -0.071	inactive: -0.077	inactive: 0.085	inactive: -0.007	inactive: -0.024	–	inactive: 0.057

The listing continues:

| Target | log2 fold change (nilotinib) | log2 fold change [1] | log2 fold change (dasatinib) | log2 fold change [2] | log2 fold change [3] | log2 fold change (quisinostat) | log2 fold change (tipifarnib) | log2 fold change [4] | log2 fold change [5] | log2 fold change [6] |
| --- | --- | --- | --- | --- | --- | --- | --- | --- | --- | --- |
| BCAS1 isoform 2 (UniProt O75363) | inactive: 0.01 | inactive: -0.04 | – | inactive: 0.007 | – | inactive: 0.051 | inactive: -0.109 | inactive: -0.03 | inactive: 0.189 | – |
| BEX4 (UniProt Q9NWD9) | inactive: 0.043 | inactive: -0.008 | inactive: 0.005 | inactive: 0.081 | inactive: 0.09 | inactive: -0.038 | inactive: -0.019 | inactive: 0 | – | inactive: -0.087 |
| BCAT1 (UniProt P54687) | inactive: 0.029 | inactive: -0.013 | inactive: 0.005 | inactive: -0.008 | inactive: -0.033 | inactive: -0.001 | inactive: 0.003 | inactive: -0.005 | inactive: -0.015 | inactive: 0.003 |
| BRF1 (UniProt Q92994) | inactive: 0.274 | inactive: -0.114 | inactive: -0.074 | inactive: -0.114 | inactive: 0.013 | inactive: -0.166 | inactive: -0.175 | inactive: 0.049 | – | inactive: 0.04 |
| BBX (UniProt Q8WY36) | inactive: -0.141 | inactive: 0.117 | inactive: 0.023 | inactive: 0.234 | inactive: 0.113 | inactive: -0.183 | inactive: -0.362 | inactive: -0.103 | – | inactive: 0.077 |
| BEGAIN, A0A1B0GVM0 | inactive: 0.02 | inactive: 0.055 | – | inactive: 0.047 | – | inactive: -0.003 | inactive: -0.068 | inactive: 0.039 | – | inactive: -0.05 |
| BMT2 (UniProt Q1RMZ1) | inactive: 0.172 | active: -0.923 | – | inactive: 0.134 | – | – | inactive: 0 | – | – | – |
| BCR (UniProt P11274) | inactive: 0.108 | inactive: 0.021 | inactive: 0.043 | inactive: -0.017 | inactive: -0.018 | inactive: -0.044 | inactive: -0.015 | – | inactive: 0.028 | inactive: 0.016 |
| BPIFA2 (UniProt Q96DR5) | inactive: -0.075 | inactive: -0.707 | – | inactive: 0.131 | – | – | inactive: -0.524 | – | – | inactive: 1.9 |
| BAHD1 (UniProt Q8TBE0) | – | – | inactive: 0.056 | – | inactive: 0.036 | inactive: 0.105 | – | inactive: -0.033 | – | – |
| BLVRA (UniProt C9J1E1) | inactive: -0.193 | inactive: 0.098 | – | inactive: 0.158 | – | – | inactive: -0.147 | – | inactive: -0.083 | – |
| BTBD1 (UniProt Q9H0C5) | inactive: 0.085 | inactive: -0.057 | – | inactive: -0.034 | – | – | inactive: -0.4 | – | – | inactive: 0.049 |
| B4GAT1 (UniProt O43505) | inactive: 0.004 | inactive: -0.177 | inactive: 0.062 | inactive: -0.251 | inactive: -0.035 | inactive: 0.013 | inactive: -0.127 | inactive: -0.014 | – | inactive: -0.006 |
| BSCL2 isoform 4 (UniProt Q96G97) | inactive: -0.119 | inactive: 0.299 | – | inactive: 0.036 | – | inactive: -0.155 | inactive: -0.26 | inactive: -0.018 | inactive: -0.137 | inactive: -0.157 |
| BLOC1S3 (UniProt Q6QNY0) | inactive: -0.058 | inactive: 0 | inactive: -0.002 | inactive: 0.013 | inactive: 0.001 | inactive: -0.009 | inactive: 0.002 | inactive: -0.012 | inactive: -0.044 | inactive: 0.06 |
| BIN1 (UniProt O00499) | inactive: 0.177 | inactive: 0.105 | – | inactive: -0.099 | – | – | inactive: 0.131 | – | inactive: -0.021 | inactive: -0.169 |
